Measured values published in patent publication US12122774B2, “Compounds as MYT1 inhibitors” (WIGEN BIOMEDICINE TECHNOLOGY (SHANGHAI) CO., LTD., priority 2022, dated 2024).

Test system: MDCK cells (MDCK wild type)
Assay: In vitro permeability experiment, MDCK wild type
Conditions: 5 μM, 90 min
Procedure: In vitro passive permeability or the ability to serve as a P-glycoprotein (P-gp) transport substrate was tested using MDCK cells (MDCK wild type) or MDCK cells stably transduced with MDR1 (MDCK-MDR1), respectively. The permeability experiment was performed in duplicate in a transwell system at a single concentration (5 μM). The cells were incubated for 90 min. Apical-to-basolateral (A to B, A-B) transport and basolateral-to-apical (B to A, B-A) transport of the corresponding compound were determined, and the permeation rate (apparent permeability) (Papp×10^−6 cm/sec) and efflux ratio (Papp (B-A)/Papp (A-B)) of the test compound were calculated.

CC(C)NCC(O)COc1ccc(CC(N)=O)cc1 (stereo not drawn) [Atenolol]
Papp Mean (A-B): 0.51 10^−6 cm · s^−1 | Papp Sample - 01 (A-B): 0.52 10^−6 cm · s^−1 | Papp Sample - 02 (A-B): 0.49 10^−6 cm · s^−1 | Papp Mean (B-A): 1.01 10^−6 cm · s^−1 | Papp Sample - 01 (B-A): 1.02 10^−6 cm · s^−1 | Papp Sample - 02 (B-A): 1.01 10^−6 cm · s^−1
